Consider one substance from paper PMC9626947.

The chains behind the UniProt entries cited, without tags or fusion partners. Where a name states a change or a piece, a line headed by the entry shows the natural chain unless it says otherwise.
UniProt P21279: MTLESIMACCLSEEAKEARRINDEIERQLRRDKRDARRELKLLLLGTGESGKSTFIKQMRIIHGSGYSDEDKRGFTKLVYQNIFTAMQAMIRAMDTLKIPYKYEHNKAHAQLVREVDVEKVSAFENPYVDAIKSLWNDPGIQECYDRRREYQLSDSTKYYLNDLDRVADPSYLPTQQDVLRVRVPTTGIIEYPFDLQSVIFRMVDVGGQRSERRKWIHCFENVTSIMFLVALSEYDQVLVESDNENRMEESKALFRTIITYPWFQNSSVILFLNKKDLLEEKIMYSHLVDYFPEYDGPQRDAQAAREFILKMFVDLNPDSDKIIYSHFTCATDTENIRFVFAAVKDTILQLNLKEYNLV

Results are given in words; binding and its absence hold for the method and conditions named. Binding seen in cells or lysates may run through a third protein. Some results given as binding are weak or reduced against the parent protein; the word gives no strength. Sequences can lack the tags named with a protein.

Test [1] concerns the target T1, GST-RGS2 (UniProt P41220).
T1 sequence: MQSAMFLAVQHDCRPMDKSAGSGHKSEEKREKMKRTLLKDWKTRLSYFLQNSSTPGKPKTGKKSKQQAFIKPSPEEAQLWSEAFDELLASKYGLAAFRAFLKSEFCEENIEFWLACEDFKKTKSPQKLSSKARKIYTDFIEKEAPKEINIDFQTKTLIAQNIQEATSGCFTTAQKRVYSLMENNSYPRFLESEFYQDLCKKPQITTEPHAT
The test is described as follows: pull-down; 8 μg of purified GST fusion protein prebound to GSH Sepharose beads, incubated 1 h at 4 °C with lysates of HEK 293 q/11 K/O cells transfected with αq constructs; cells treated with DMSO or 1 μM YM-254890 overnight; 20 mM Tris-HCl pH 7.4, 1 mM EDTA, 1 mM DTT, 5 mM MgCl2, 0.7% Triton X-100; immunoblot for αq; only the target purified.

Test [2] deals with T2, FLAG-PLCβ-3 (UniProt Q01970).
T2 sequence: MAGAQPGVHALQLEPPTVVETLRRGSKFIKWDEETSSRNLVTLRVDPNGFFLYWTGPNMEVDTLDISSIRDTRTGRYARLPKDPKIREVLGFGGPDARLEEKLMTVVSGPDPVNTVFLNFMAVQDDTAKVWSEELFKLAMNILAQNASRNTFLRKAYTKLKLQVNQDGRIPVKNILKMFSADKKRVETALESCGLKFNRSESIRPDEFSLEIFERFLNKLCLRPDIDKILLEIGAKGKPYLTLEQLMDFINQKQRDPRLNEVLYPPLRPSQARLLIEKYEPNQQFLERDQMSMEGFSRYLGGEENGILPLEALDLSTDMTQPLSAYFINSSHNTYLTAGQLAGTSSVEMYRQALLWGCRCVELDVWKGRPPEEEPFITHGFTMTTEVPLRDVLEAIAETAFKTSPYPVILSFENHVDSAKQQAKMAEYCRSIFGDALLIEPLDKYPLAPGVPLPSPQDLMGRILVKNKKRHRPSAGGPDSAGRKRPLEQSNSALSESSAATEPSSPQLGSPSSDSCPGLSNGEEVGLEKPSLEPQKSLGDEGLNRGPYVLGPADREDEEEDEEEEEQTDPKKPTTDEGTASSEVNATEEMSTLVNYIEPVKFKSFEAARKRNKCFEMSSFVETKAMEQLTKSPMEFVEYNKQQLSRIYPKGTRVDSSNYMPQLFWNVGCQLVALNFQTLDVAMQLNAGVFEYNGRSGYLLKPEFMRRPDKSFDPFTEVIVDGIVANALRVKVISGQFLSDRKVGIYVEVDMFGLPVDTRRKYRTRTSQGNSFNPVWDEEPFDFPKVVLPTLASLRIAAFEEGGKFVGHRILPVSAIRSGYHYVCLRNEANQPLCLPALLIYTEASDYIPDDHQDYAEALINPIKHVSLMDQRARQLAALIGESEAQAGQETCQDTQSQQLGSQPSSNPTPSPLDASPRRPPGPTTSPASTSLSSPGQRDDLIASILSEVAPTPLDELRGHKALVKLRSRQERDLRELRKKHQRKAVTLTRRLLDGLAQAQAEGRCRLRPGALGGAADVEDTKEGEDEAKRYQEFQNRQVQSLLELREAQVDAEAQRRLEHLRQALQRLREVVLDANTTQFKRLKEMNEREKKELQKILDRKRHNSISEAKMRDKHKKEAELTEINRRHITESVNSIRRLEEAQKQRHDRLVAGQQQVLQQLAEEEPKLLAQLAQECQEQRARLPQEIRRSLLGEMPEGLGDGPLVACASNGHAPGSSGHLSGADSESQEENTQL
The test is described as follows: co-IP; FLAG-PLCβ-3 immunoprecipitated with anti-FLAG M2 affinity gel from lysates of co-transfected HEK 293 q/11 K/O cells; cells untreated or treated with 1 μM YM-254890 overnight; lysis buffer C with 1 mM DTT, 2 h at 4 °C; immunoblot for αq. Background: Immunoblotting shows a protein as a band on a membrane.

On to “HA-tagged αqQ209L (from UniProt P21279 1-359)”, for which the binding entry in test [1] and in test [2] was “binds” each time.
